# Laboratory results published in the supplement of paper PMC5949888.
# ± gives the standard deviation of the averaged measurements. Most values lie at the floor of the assay. Slopes are relative: functional sequences can read slightly below zero.
# System: Saccharomyces cerevisiae PS128 hsf1 delta, HSF1(1-493) fusion
# Assay: growth estimate (transactivation domain function in HSF1 fusion, heat-shock survival) (a.u. (slope of normalised read count over time)); higher = stronger growth at 37°C, i.e. more transactivation activity
# Details: library: random library
row,Substance,growth estimate
1,IHSMESRAEFRPTICLH,< -0.25
2,TDIRGTCYASMMRSSSAGFK,< -0.25
3,IMQGEERW,< -0.25
4,FIIMVRG,-0.246
5,RDLGPETVCYGAIGGRVIRH,< -0.25
6,RIGVSRRLMPAHKSGSASEG,< -0.25
7,SECPRSG,< -0.25
8,TVSIEERLGGPRPSLEWWHK,< -0.25
9,SRHTSYQRC,< -0.25
10,RNNTLRDRRHAPDAKSANCA,< -0.25
11,ILSYSAMCMNIRVLLGVRSM,< -0.25
12,LPGGYCLVGRMTPVLFFVAS,-0.219
13,DMRSPGRECHGG,< -0.25
14,CAAR,< -0.25
15,PSMGFTKECR,< -0.25
16,ALGFVRTATVITGESCHSLG,< -0.25
17,EGVRLLDRRVVDARFRAYHT,< -0.25
18,PGDSLRK,< -0.25
19,CFRT,< -0.25
20,TYSRSTRISALSTIFQP,< -0.25
21,PSSQVVAKVRVFGHVDEQKG,< -0.25
22,DWGGNRFPIQATSALLVEPT,< -0.25
23,CVAPSRNMVGPHRLCRACHL,< -0.25

row,Substance,growth estimate
1,GSPNPAIRATNNLANGSHSR,< -0.25
2,PKWQVLRIFPRHDALFAHRA,-0.246
3,EPIRHAGSYIAAPTGVMGGP,< -0.25
4,ATWDATASLR,< -0.25
5,YHTRLLFMEGTHVVDPSPRC,< -0.25
6,ERV,< -0.25
7,VCNASDASGGQL,< -0.25
8,SDVM,< -0.25
9,RTGIGCYESYNKTFGY,< -0.25
10,FSFANSGSSV,< -0.25
11,VLWVLCSS,< -0.25
12,LGQGGCKNFGLRFRTSVTKP,< -0.25
13,GCLYYADGR,< -0.25
14,CCCVGATRQVRPIHRELRAM,< -0.25
15,ISGRPQN,< -0.25
16,VVVSRVPLLLEFAGSH,< -0.25
17,WQFQWNDIWQ,< -0.25
18,TCAPVKLTRLPSCAPANQ,< -0.25
19,YHPSGSLFGSIGKDTVPTET,< -0.25
20,VLNQEVLCHRGYRHPKSGW,< -0.25
21,RNASFMSKVIYYCDGCRHSY,-0.245
22,VQCGFGLQKCIRHSD,< -0.25
23,EGLNLPYLGQLD,< -0.25

row,Substance,growth estimate
1,SPTARQRLMTRSDLGITNRP,< -0.25
2,LLSLAS,< -0.25
3,CNPRQHVWRIFLVDHCGLIS,< -0.25
4,LADWHSPAGRLALCTGHSVS,< -0.25
5,ANALPVGLDKRLGLAQLRKT,< -0.25
6,FENCPIDSIRNPRLCLCQCG,< -0.25
7,PSV,< -0.25
8,MLPSGGFRRMCDRFHGVGRN,< -0.25
9,QLF,< -0.25
10,SRANLLCNVY,< -0.25
11,QKT,< -0.25
12,RKRDTN,< -0.25
13,SAEGRREPGVKEPLVAPARV,< -0.25
14,TSRTA,< -0.25
15,VRVT,-0.239 ± 0.015
16,RWSKPLGGVPGAKLYNP,< -0.25
17,YRQIGFESIAPITVR,< -0.25
18,VFGAQGGWYLRQFGLFWESG,< -0.25
19,NNSRSCRDFMRITLI,< -0.25
20,DWLNRTTP,< -0.25
21,ARLVEWCNGQWRGK,< -0.25
22,CGKSGGYRIVTGNLVSSIDR,< -0.25
23,QRDITTSRGPTNSSRKMRAS,< -0.25

row,Substance,growth estimate
1,YDSRSGSFSAPPLRRRTVTG,< -0.25
2,MQSG,< -0.25
3,MTNCRRCAKVGII,< -0.25
4,LEQKYRNVRAVLREL,< -0.25
5,ECTSLVRPADVSRFVRILAS,< -0.25
6,LLWDA,< -0.25
7,ALP,< -0.25
8,RMALEALFGNLFFGR,< -0.25
9,FTTGLAYVT,< -0.25
10,SILGYSPM,-0.239
11,HSRDDILDLVQRGMVWGM,< -0.25
12,REIHEIATAQGDLKSESSGR,< -0.25
13,IGLIPGVLTPVDIYDCPLLD,< -0.25
14,GTNETMPAK,< -0.25
15,RVTG,< -0.25
16,FYKRH,< -0.25
17,HQLSWHRSVDTKGGFTVMRS,< -0.25
18,GFCGPDVLGSSRCTELHLLR,< -0.25
19,IMGHEIPFAP,< -0.25
20,MGRPPTGREP,< -0.25
21,PVLAVKYCLD,< -0.25
22,REFDRDRVAAVMIRVQPRAP,< -0.25
23,MLVHRDYFSTCIGGFIALFC,< -0.25

row,Substance,growth estimate
1,VKTWDLVSRQIVNLIIVNGN,< -0.25
2,PSYGKVPTKEAGRGDVMSPR,< -0.25
3,ALKSPGVPPWYGPC,< -0.25
4,MCQWPQIRLEQHWSAAHRAP,< -0.25
5,RSVSGNPRSIGTELPGNRCL,< -0.25
6,PTVRDGLAYGWFDMRKSGMG,< -0.25
7,VTSYEMVV,< -0.25
8,NVIFSMDSYTFEGITVGNTG,< -0.25
9,RRKSDPHDPVSRSIYI,< -0.25
10,SPKRWYINAAFSLGR,< -0.25
11,GHNVTGIIRVCASDCE,< -0.25
12,ASLLGTALQDPLEAA,< -0.25
13,FRRHIN,< -0.25
14,FPCSIENLTEEGVNTSGISN,< -0.25
15,LETKKR,< -0.25
16,IVVVERV,-0.25
17,EIKSTYAIVSSAGDDKRVSA,< -0.25
18,GFERFSASLLRLCYGFDALQ,-0.246
19,IIGSKTR,< -0.25
20,LQAPT,< -0.25
21,VWRKLQSVRFASTVP,< -0.25
22,ALH,< -0.25
23,GRLCCDSNPKAEVSSE,< -0.25

# Copied from the list:
# In growth estimate, GRLCCDSNPKAEVSSE shows < -0.25
# In growth estimate, SPKRWYINAAFSLGR shows < -0.25
# In growth estimate, ALKSPGVPPWYGPC shows < -0.25
# In growth estimate, IIGSKTR shows < -0.25

# The listing continues.

row,Substance,growth estimate
1,MLCVLELKVARK,< -0.25
2,WSVGK,< -0.25
3,RVWDPYRDACFP,-0.227
4,PNLRTLRRVGGP,< -0.25
5,YFC,< -0.25
6,DQNHRHRQYQLGFSF,< -0.25
7,IRA,< -0.25
8,GGDSNFPARLTSSGAKYSDS,< -0.25
9,KSWNWVVWS,< -0.25
10,GSGRKRYGSSCYGKSHSHTR,< -0.25
11,CLTDADELGRRCVCFQNSGG,< -0.25
12,NENTRDSGSSPWIIQFS,< -0.25
13,IPVS,< -0.25
14,INNHQEHIRRLLSGLGPHAL,< -0.25
15,WAIGGI,< -0.25
16,VMTGDG,< -0.25
17,GCDLNRGLTGFWYSTRAGIK,< -0.25
18,NRRCHLGRVSPCYTVSLP,-0.229
19,GEGRLAEFFYALDTHLRVTC,< -0.25
20,ALRGQFCEALLMGFRTF,< -0.25
21,GVYSPPLQ,< -0.25
22,LEGLYRNTPVSTLSAPIRSA,< -0.25
23,GIFRAGMLQ,< -0.25

row,Substance,growth estimate
1,QHDRVRCPYKGDMQSPPRTR,< -0.25
2,MNPID,< -0.25
3,TWR,< -0.25
4,EPATLFRGSRPSDRPCSPQP,< -0.25
5,TGLPRDG,< -0.25
6,FVSFWVLVWNP,< -0.25
7,RVFAPPEKSHGCLPIGVYKL,< -0.25
8,FYPYE,< -0.25
9,RRAWVWRRG,< -0.25
10,LRRH,< -0.25
11,PGTVRRPKRGRGGTTPTCIG,< -0.25
12,GYGRPDWPGVASWIPFAFRP,< -0.25
13,QYDG,< -0.25
14,HTREKMPSPAGLAPVLFCIV,< -0.25
15,RLSSEPGRALGTLTLDSVRD,< -0.25
16,CCVRTIRASAISTNHTKYGR,< -0.25
17,RGRLRSSAPTS,< -0.25
18,ERGSWGGLQTTDFPGHDVLR,< -0.25
19,STSCRALSLFTNGIAGTHTG,< -0.25
20,MLY,< -0.25
21,AGIT,< -0.25
22,SVLGLEAPGWDYPESAGSYQ,< -0.25
23,GTVILPFRVQWVRGRIRRPP,< -0.25
